Substitutions are numbered along the chain they refer to. These are yes or no findings as the source states them, for the method shown. Some entries that bind do so weakly or less than the wild type. For some assays here: Where a sequence is shown, tags or fusion partners need not be part of it. Blank lines part the entries; values can stand above or below the binder they belong to.
Columns and labels:
[1] = target: T1, Sfr1 (wildtype, N-terminally hexahistidine-tagged) (S. pombe) (UniProt Q9USV1); experiment: SEC; His6-Sfr1 co-expressed with Swi5 in E. coli and purified together as a complex; 16/60 Superdex 200 pg in H buffer (25 mM Hepes-KOH pH 7.5, 10% glycerol, 0.5 mM TCEP) with 200 mM KCl, 4 °C; both purified
T1 sequence: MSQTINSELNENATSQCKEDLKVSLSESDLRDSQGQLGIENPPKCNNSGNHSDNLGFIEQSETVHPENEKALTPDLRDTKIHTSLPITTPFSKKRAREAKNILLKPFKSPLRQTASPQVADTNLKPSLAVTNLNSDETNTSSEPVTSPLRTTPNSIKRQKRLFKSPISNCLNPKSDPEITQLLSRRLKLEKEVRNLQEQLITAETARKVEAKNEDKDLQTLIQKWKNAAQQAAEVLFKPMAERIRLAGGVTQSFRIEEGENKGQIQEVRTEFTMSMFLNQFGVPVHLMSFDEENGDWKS

[2] = target: T2, Sfr1 nonphosphorylatable mutant (Sfr1 chain of S5S1-NON) (S. pombe) (UniProt Q9USV1); experiment: as above
T2 sequence: T1 sequence with S24A, T73A, S109A, S116A, S165A

[3] = target: T3, Sfr1 phosphomimetic mutant (Sfr1 chain of S5S1-PM) (S. pombe) (UniProt Q9USV1); experiment: as above
T3 sequence: T1 sequence with S24D, T73D, S109D, S116D, S165D

[4] = target: T4, Swi5–Sfr1 phosphomimetic mutant complex (S5S1-PM) (S. pombe) (UniProt Q9USV1+Q9UUB7); experiment: pull-down; in solution; nickel resin holds hexahistidine-tagged S5S1; 500 nM each protein; 30 mM Tris-Cl 7.5, 100 mM KCl, 5 mM MgCl2, 1 mM ATP, 0.25 mM TCEP, 5% glycerol, 0.05% Tween-20; 30 °C 15 min, then resin 1 h at 4 °C; SDS-PAGE, Coomassie; both purified
T4 sequence 1: T1 sequence with S24D, T73D, S109D, S116D, S165D
T4 sequence 2: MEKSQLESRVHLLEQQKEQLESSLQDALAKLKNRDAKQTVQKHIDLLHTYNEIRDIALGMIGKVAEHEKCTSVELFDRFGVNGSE

Fbh1 (S. pombe) = target: T5, Fbh1 (S. pombe) (UniProt Q9USU3); experiment: co-purification; Fbh1 purified in complex with Skp1; SDS-PAGE and Coomassie staining (Fig. S1B); how it was purified is not told
T5 sequence: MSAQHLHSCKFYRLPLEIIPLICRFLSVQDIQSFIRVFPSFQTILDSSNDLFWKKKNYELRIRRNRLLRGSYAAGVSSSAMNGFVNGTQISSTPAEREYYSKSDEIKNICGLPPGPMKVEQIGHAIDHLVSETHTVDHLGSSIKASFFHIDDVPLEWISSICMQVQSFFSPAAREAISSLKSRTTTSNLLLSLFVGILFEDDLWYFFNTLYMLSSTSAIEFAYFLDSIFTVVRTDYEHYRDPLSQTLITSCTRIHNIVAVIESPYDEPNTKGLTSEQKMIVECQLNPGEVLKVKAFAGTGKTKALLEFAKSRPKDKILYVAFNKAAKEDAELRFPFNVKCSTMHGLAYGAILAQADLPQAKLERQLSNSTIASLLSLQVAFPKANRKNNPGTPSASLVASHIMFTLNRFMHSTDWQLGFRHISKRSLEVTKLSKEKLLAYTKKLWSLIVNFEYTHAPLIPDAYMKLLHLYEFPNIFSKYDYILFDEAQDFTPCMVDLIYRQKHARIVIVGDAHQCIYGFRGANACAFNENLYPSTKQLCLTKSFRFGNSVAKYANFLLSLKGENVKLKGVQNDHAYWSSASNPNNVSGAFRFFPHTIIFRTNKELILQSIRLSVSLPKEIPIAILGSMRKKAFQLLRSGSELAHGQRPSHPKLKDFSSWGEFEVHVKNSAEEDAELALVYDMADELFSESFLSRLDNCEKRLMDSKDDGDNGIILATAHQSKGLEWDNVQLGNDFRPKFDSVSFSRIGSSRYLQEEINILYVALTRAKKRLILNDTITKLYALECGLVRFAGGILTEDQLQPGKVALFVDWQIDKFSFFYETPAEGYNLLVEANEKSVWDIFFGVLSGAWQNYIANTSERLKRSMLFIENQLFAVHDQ

- binding [1]: binds
- binding [2]: binds
- binding [3]: binds
B1: Swi5 (protein, UniProt Q9UUB7 1-85)
chain: T4 sequence 2

- binding [4]: binds weakly
B2: Rad51 (natural protein, S. pombe, UniProt P36601 1-365, looked up)
chain: MADTEVEMQVSAADTNNNENGQAQSNYEYDVNVQDEEDEAAAGPMPLQMLEGNGITASDIKKIHEAGYYTVESIAYTPKRQLLLIKGISEAKADKLLGEASKLVPMGFTTATEYHIRRSELITITTGSKQLDTLLQGGVETGSITELFGEFRTGKSQICHTLAVTCQLPIDMGGGEGKCLYIDTEGTFRPVRLLAVADRYGLNGEEVLDNVAYARAYNADHQLELLQQAANMMSESRFSLLVVDSCTALYRTDFSGRGELSARQMHLARFMRTLQRLADEFGIAVVITNQVVAQVDGISFNPDPKKPIGGNILAHSSTTRLSLRKGRGEQRICKIYDSPCLPESEAIFAINSDGVGDPKEIIAPV
notes: Rad51 recombinase, S. pombe; also called S. pombe Rad51; Rad51-ssDNA filament

- binding (Fbh1 (S. pombe)): binds
B3: Skp1 (protein, UniProt Q9Y709 1-161)
chain: MSKIKLISSDNEEFVVDQLIAERSMLIKNMLEDVGEINVPIPLPNVSSNVLRKVLEWCEHHKNDLYSGTEEESDIRLKKSTDIDEWDRKFMAVDQEMLFEIVLASNYLDIKPLLDTGCKTVANMIRGKSPEDIRKTFNIPNDFTPEEEEQIRKENEWAEDR

— paper PMC10366545, “Phosphoregulation of DNA repair via the Rad51 auxiliary factor Swi5–Sfr1” (The Journal of Biological Chemistry, 2023)
